Assay results as given in patent US8637472B2, “Optimized dengue virus entry inhibitory peptide (10AN)” (University of Washington Through Its Center for …, priority 2007, dated 2014).
At least one peptide structure holds a part that was inferred or is arguable (an end, a ring closure or a residue). Residues, ends and D or L forms follow the SMILES beside them.

What was measured:
Type in all cases: cell-based, DENV-2 strain NG-2
DENV-2 [1] = test: qRT-PCR virus binding assay; details: virus pre-incubated 45 m at 4° C., infection of LLCMK-2 cells at 4° C. for 45 m
DENV-2 [2] = test: Pre-binding focus-forming assay with 10AN against DENV-2; details: peptide added to target cells for 1 h at 4° C. prior to infection, cells rinsed
DENV-2 [3] = test: Focus forming unit (FFU) reduction assay; details: virus pre-incubated with peptide 1 h at rt; LLCMK-2 target cells; 1% DMSO/aqueous solution

CC[C@H](C)[C@H](NC(=O)[C@H](CC(C)C)NC(=O)[C@@H](NC(=O)[C@H](Cc1ccccc1)NC(=O)[C@H](Cc1c[nH]c2ccccc12)NC(=O)[C@@H](N)Cc1ccccc1)[C@@H](C)O)C(=O)N[C@@H](CCCCN)C(=O)N[C@H](C(=O)N[C@@H](CCC(N)=O)C(=O)N[C@@H](C)C(=O)N[C@@H](CCCCN)C(=O)N[C@@H](CCC(N)=O)C(=O)N1CCC[C@H]1C(=O)N[C@@H](C)C(=O)N[C@@H](CCCNC(=N)N)C(=O)N[C@@H](Cc1ccc(O)cc1)C(=O)N[C@@H](CCCNC(=N)N)C(=O)N[C@@H](CCCNC(=N)N)C(=O)N[C@@H](Cc1ccccc1)C(=O)N[C@@H](CS)C(=O)O)[C@@H](C)O [10AN] (H-FWFTLIKTQAKQPARYRRFC-OH)
virus binding/attachment to target cells (qRT-PCR signal) (DENV-2 [1]): did not inhibit virus binding | inhibition of DENV-2 infection after pre-treatment of target cells (DENV-2 [2]): no evidence of inhibition | inhibitory activity against DENV-2 (dose response) (DENV-2 [3]): showed an increase in inhibitory activity as a function of concentration
